Results are given in words; binding and its absence hold for the method and conditions named. Some entries that bind do so weakly or less than the wild type. Where a sequence is shown, tags or fusion partners need not be part of it.

This assay has as its target VIPP1-His (VIPP1 C-terminally tagged by 6xHis) (Arabidopsis thaliana) (UniProt O80796). Put plainly: native gel or EMSA. (In general: A gel shift assay detects complexes by their altered migration in electrophoresis.)

B1: VIPP1-His (VIPP1 C-terminally tagged by 6xHis) (protein, UniProt O80796 65-330)
chain: CNGHGATMNLFERFSRVVKSYANALISSFEDPEKILEQTVIEMNSDLTKMRQATAQVLASQKQLQNKYKAAQQSSDDWYKRAQLALAKGDEDLAREALKRRKSFADNATALKTQLDQQKGVVDNLVSNTRLLESKIQEAKAKKDTLLARARTAKTATKVQEMIGTVNTSGALSAFEKMEEKVMAMESEADALTQIGTDELEGKFQMLETSSVDDDLADLKKELSGSSKKGELPPGRSTVAASTRYPFKDSEIENELNELRRKANDF
B1: the binding result is reported as “binds”.

The record behind these values is doi:10.1101/2025.05.20.655051.
